The values below come from patent US20130317056A1, “NEURONAL NICOTINIC AGONISTS AND METHODS OF CORRELATING COMT SNPS” (ABBVIE INC., priority 2012, published 2013).

Each structure is given as a SMILES string.

The series relates to clinically stable subjects with schizophrenia. The series can be described thus: Disposition of subjects and tolerability, Clinical Study A. The note with it: 25 mg group. The series is classed as in vivo, human. The text has this: A Phase 2a proof-of-concept (POC) study in clinically stable subjects with schizophrenia who were clinically stable and received stable doses of atypical antipsychotic therapy. The study was a Phase 2, multi-center, randomized, double-blind, placebo-controlled, parallel group study designed to evaluate the safety and efficacy of doses of (4s)-4-(5-phenyl-1,3,4-thiadiazol-2-yloxy)-1-azatricyclo[3.3.1.1^3,7]decane (Compound A) in clinically stable male and female subjects (ages 20 to 55, inclusive) with a Diagnostic and Statistical Manual of Mental Disorders—Fourth Edition, Text Revision (DSM-IV-TR) diagnosis of schizophrenia. Psychiatric diagnoses were confirmed using the Mini-International Neuropsychiatric Interview (MINI) version 6.0.0. The criteria for clinical stability was determined by a combination of retrospective data (over the 4 months prior to the start of Screening, which will be supported by clinical records, patient, identified responsible contact person, and physician interviews), and prospective data assessed during the Prospective Stabilization Period of 28 to 42 days duration.
The study consisted of a screening period of at least 28 and up to 42 days, a 84-day outpatient treatment period, a 14-day post-treatment period, and a post-treatment follow-up period. The screening period consisted of three visits: Screening Visit 1, Screening Visit 2, and Day −1. […]

Regarding `c1ccc(-c2nnc(O[C@@H]3C4CC5C[C@H]3C[N@](C5)C4)s2)cc1` [Compound A, (4s)-4-(5-phenyl-1,3,4-thiadiazol-2-yloxy)-1-azatricyclo[3.3.1.1^3,7]decane], the completion rate was determined as 73.1%.
